The supplement of paper PMC7661543
Differences between knockout arms are mostly noise.

Test system: ZR-75-1
Assay: relative cell number vs DMSO control (72 h) (% of DMSO); higher = less growth inhibition (more cells)
Method: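 QMAP-Seq: a pool of 5 breast cancer cell lines (ZR-75-1, SKBR3, HCC-38, MDA-MB-231, BT-20), each carrying 12 doxycycline-inducible Cas9 sgRNA perturbations (11 knockouts plus non-targeting sgNT), was treated with compounds for 72 h at four 10-fold doses (10 nM-10 uM or 1 nM-1 uM range). Barcodes were amplified and sequenced, and cell number was interpolated from 293T spike-in standard curves. The result is expressed as % of the median of DMSO wells. Two biological replicates.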

CC(C)(C)OC(=O)CN(Cc1ccc(Cl)cc1)Cc1ccc([N+](=O)[O-])s1 [GSK4112]
Conditions | relative cell number
sgRNA knockout: sgATF3, 10 nM | 80.6
sgRNA knockout: sgATF3, 100 nM | 118
sgRNA knockout: sgATF3, 1000 nM | 112
sgRNA knockout: sgATF3, 10000 nM | 99.1
sgRNA knockout: sgATF4, 10 nM | 89.4
sgRNA knockout: sgATF4, 100 nM | 128
sgRNA knockout: sgATF4, 1000 nM | 126
sgRNA knockout: sgATF4, 10000 nM | 102
sgRNA knockout: sgATF6, 10 nM | 79.2
sgRNA knockout: sgATF6, 100 nM | 128
sgRNA knockout: sgATF6, 1000 nM | 90.1
sgRNA knockout: sgATF6, 10000 nM | 100
sgRNA knockout: sgATG7, 10 nM | 97.7
sgRNA knockout: sgATG7, 100 nM | 127
sgRNA knockout: sgATG7, 1000 nM | 96.2
sgRNA knockout: sgATG7, 10000 nM | 101
sgRNA knockout: sgERN1, 10 nM | 82.7
sgRNA knockout: sgERN1, 100 nM | 92
sgRNA knockout: sgERN1, 1000 nM | 90.7
sgRNA knockout: sgERN1, 10000 nM | 80.3
sgRNA knockout: sgHSF2, 10 nM | 94.2
sgRNA knockout: sgHSF2, 100 nM | 98.15
sgRNA knockout: sgHSF2, 1000 nM | 95.5
sgRNA knockout: sgHSF2, 10000 nM | 102
sgRNA knockout: sgNFE2L2, 10 nM | 105
sgRNA knockout: sgNFE2L2, 100 nM | 111
sgRNA knockout: sgNFE2L2, 1000 nM | 94.5
sgRNA knockout: sgNFE2L2, 10000 nM | 93.7
sgRNA knockout: sgSLC35F2, 10 nM | 95.9
sgRNA knockout: sgSLC35F2, 100 nM | 148
sgRNA knockout: sgSLC35F2, 1000 nM | 90.576
sgRNA knockout: sgSLC35F2, 10000 nM | 68.3
sgRNA knockout: sgXBP1, 10 nM | 93.1
sgRNA knockout: sgXBP1, 100 nM | 94.15
sgRNA knockout: sgXBP1, 1000 nM | 94.7
sgRNA knockout: sgXBP1, 10000 nM | 106

COc1ccc(-c2ccc3c(N4CCOCC4)nc(N4C[C@@H](C)O[C@@H](C)C4)nc3n2)cc1CO
Conditions | relative cell number
sgRNA knockout: sgATF3, 10 nM | 99.7
sgRNA knockout: sgATF3, 100 nM | 135
sgRNA knockout: sgATF3, 1000 nM | 96
sgRNA knockout: sgATF3, 10000 nM | 37
sgRNA knockout: sgATF4, 10 nM | 71.6
sgRNA knockout: sgATF4, 100 nM | 110
sgRNA knockout: sgATF4, 1000 nM | 108
sgRNA knockout: sgATF4, 10000 nM | 35.6
sgRNA knockout: sgATF6, 10 nM | 101
sgRNA knockout: sgATF6, 100 nM | 132
sgRNA knockout: sgATF6, 1000 nM | 71.9
sgRNA knockout: sgATF6, 10000 nM | 33.7
sgRNA knockout: sgATG7, 10 nM | 110
sgRNA knockout: sgATG7, 100 nM | 101
sgRNA knockout: sgATG7, 1000 nM | 72.3
sgRNA knockout: sgATG7, 10000 nM | 25.4
sgRNA knockout: sgERN1, 10 nM | 82.1
sgRNA knockout: sgERN1, 100 nM | 112
sgRNA knockout: sgERN1, 1000 nM | 92.8
sgRNA knockout: sgERN1, 10000 nM | 39.1
sgRNA knockout: sgHSF2, 10 nM | 98.2
sgRNA knockout: sgHSF2, 100 nM | 103
sgRNA knockout: sgHSF2, 1000 nM | 74.5
sgRNA knockout: sgHSF2, 10000 nM | 31.2
sgRNA knockout: sgNFE2L2, 10 nM | 90.5
sgRNA knockout: sgNFE2L2, 100 nM | 85.7
sgRNA knockout: sgNFE2L2, 1000 nM | 81.19
sgRNA knockout: sgNFE2L2, 10000 nM | 33
sgRNA knockout: sgSLC35F2, 10 nM | 101
sgRNA knockout: sgSLC35F2, 100 nM | 123
sgRNA knockout: sgSLC35F2, 1000 nM | 123
sgRNA knockout: sgSLC35F2, 10000 nM | 32.5
sgRNA knockout: sgXBP1, 10 nM | 107
sgRNA knockout: sgXBP1, 100 nM | 95.9
sgRNA knockout: sgXBP1, 1000 nM | 86
sgRNA knockout: sgXBP1, 10000 nM | 30.8

CC(C)C[C@H](NC(=O)[C@H](Cc1ccccc1)NC(=O)c1cnccn1)B(O)O [Bortezomib]
Conditions | relative cell number
sgRNA knockout: sgATF3, 1 nM | 108
sgRNA knockout: sgATF3, 10 nM | 109
sgRNA knockout: sgATF3, 100 nM | 21.5
sgRNA knockout: sgATF3, 1000 nM | 15.5
sgRNA knockout: sgATF4, 1 nM | 78.8
sgRNA knockout: sgATF4, 10 nM | 97.7
sgRNA knockout: sgATF4, 100 nM | 23.4
sgRNA knockout: sgATF4, 1000 nM | 15.9
sgRNA knockout: sgATF6, 1 nM | 64.5
sgRNA knockout: sgATF6, 10 nM | 83.5
sgRNA knockout: sgATF6, 100 nM | 11.1
sgRNA knockout: sgATF6, 1000 nM | 12.7
sgRNA knockout: sgATG7, 1 nM | 82.8
sgRNA knockout: sgATG7, 10 nM | 111
sgRNA knockout: sgATG7, 100 nM | 13.2
sgRNA knockout: sgATG7, 1000 nM | 18.8
sgRNA knockout: sgERN1, 1 nM | 86.5
sgRNA knockout: sgERN1, 10 nM | 87
sgRNA knockout: sgERN1, 100 nM | 18.8
sgRNA knockout: sgERN1, 1000 nM | 16.1
sgRNA knockout: sgHSF2, 1 nM | 89.9
sgRNA knockout: sgHSF2, 10 nM | 105
sgRNA knockout: sgHSF2, 100 nM | 21.2
sgRNA knockout: sgHSF2, 1000 nM | 12.5
sgRNA knockout: sgNFE2L2, 1 nM | 104
sgRNA knockout: sgNFE2L2, 10 nM | 97.6
sgRNA knockout: sgNFE2L2, 100 nM | 17.2
sgRNA knockout: sgNFE2L2, 1000 nM | 10.6
sgRNA knockout: sgSLC35F2, 1 nM | 45.3
sgRNA knockout: sgSLC35F2, 10 nM | 111
sgRNA knockout: sgSLC35F2, 100 nM | 21.7
sgRNA knockout: sgSLC35F2, 1000 nM | 11.2
sgRNA knockout: sgXBP1, 1 nM | 86.6
sgRNA knockout: sgXBP1, 10 nM | 93.9
sgRNA knockout: sgXBP1, 100 nM | 24.6
sgRNA knockout: sgXBP1, 1000 nM | 13.9
